The list shows a part of the results. Many values rest on one well or one pass, so single values are uncertain.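 Imaging used 1,536-well plates; nuclei positive for cleaved PARP by antibody were divided by total DNA-stained nuclei to yield the apoptosis fraction. Doses for screening kept most cells viable, and cell lines differ markedly in resting and induced cleaved-PARP levels.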
Tests used:
Assay in all cases: cleaved PARP positive nuclei fraction relative to DMSO control; melanoma cells; higher = more apoptosis
Details in all cases: library dose: low library concentration; 72 h
WM115 = tested on: WM115
WM1716 = tested on: WM1716
WM1745 = tested on: WM1745
WM3526 = tested on: WM3526
WM3619 = tested on: WM3619
WM451Lu = tested on: WM451Lu

| Compound | cleaved PARP positive nuclei fraction (WM115) | cleaved PARP positive nuclei fraction (WM1716) | cleaved PARP positive nuclei fraction (WM1745) | cleaved PARP positive nuclei fraction (WM3526) | cleaved PARP positive nuclei fraction (WM3619) | cleaved PARP positive nuclei fraction (WM451Lu) |
| --- | --- | --- | --- | --- | --- | --- |
| COc1ccc(C2=N[C@@H](c3ccc(Cl)cc3)[C@@H](c3ccc(Cl)cc3)N2C(=O)N2CCNC(=O)C2)c(OC(C)C)c1 [Nutlin-3] + C=CCNC1=C2C[C@@H](C)C[C@H](OC)[C@H](O)[C@@H](C)/C=C(\C)[C@H](OC(N)=O)[C@@H](OC)/C=C\C=C(/C)C(=O)NC(=CC1=O)C2=O [Tanespimycin] (first compound 0.1 µM, partner dose 0.002 µM) | 95.3% | 15.5% | 87.1% | 37.5% | 106% | 128% |
| Cn1sc(=O)n(Cc2ccccc2)c1=O + O=C(CCCCCCC(=O)Nc1ccccc1)NO [vorinostat] (first compound 0.4 µM, partner dose 0.08 µM) | 60.3% | 73.3% | 98.1% | 68.4% | 114% | 422% |
| Cn1cnc2c(F)c(Nc3ccc(Br)cc3Cl)c(C(=O)NOCCO)cc21 [selumetinib] + COc1cc(N2CCC(N3CCN(C)CC3)CC2)ccc1Nc1ncc(Cl)c(Nc2ccccc2S(=O)(=O)C(C)C)n1 [NVP-TAE684] (first compound 0.015 µM, partner dose 0.08 µM) | 346% | 80.7% | 76.6% | 71.5% | 105% | 37.1% |
| COc1ccc(C2=N[C@@H](c3ccc(Cl)cc3)[C@@H](c3ccc(Cl)cc3)N2C(=O)N2CCNC(=O)C2)c(OC(C)C)c1 [Nutlin-3] + Cc1cc(Nc2cc(N3CCN(C)CC3)nc(/C=C/c3ccccc3)n2)n[nH]1 [ENMD2076] (first compound 0.1 µM, partner dose 0.04 µM) | 119% | 72.6% | 94.6% | 36.5% | 94.9% | 20.5% |
| CCN(CC)CCNC(=O)c1c(C)[nH]c(/C=C2\C(=O)Nc3ccc(F)cc32)c1C [sunitinib] + Nc1ncn([C@H]2C[C@H](O)[C@@H](CO)O2)c(=O)n1 [decitabine] (first compound 0.4 µM, partner dose 0.1 µM) | 252% | 74.4% | 111% | 47.7% | 81.3% | 75.8% |
| Cn1sc(=O)n(Cc2ccccc2)c1=O + Nc1ncn([C@H]2C[C@H](O)[C@@H](CO)O2)c(=O)n1 [decitabine] (first compound 0.4 µM, partner dose 0.1 µM) | 218% | 50.1% | 104% | 73.5% | 106% | 123% |
| CN(c1ncccc1CNc1nc(Nc2ccc3c(c2)CC(=O)N3)ncc1C(F)(F)F)S(C)(=O)=O + Nc1ccn([C@@H]2O[C@H](CO)[C@@H](O)C2(F)F)c(=O)n1 [gemcitabine] (first compound 0.08 µM, partner dose 0.0004 µM) | 245% | 1930% | 135% | 104% | 90.9% | 360% |
| Cn1sc(=O)n(Cc2ccccc2)c1=O + O=C1NC(=O)/C(=C/c2ccc(-c3ccc(F)cc3O)o2)S1 [AS252424] (first compound 0.4 µM, partner dose 1 µM) | 93.6% | 78.4% | 102% | 40.1% | 98.8% | 296% |
| CS(=O)(=O)c1ccc(C(=O)Nc2ccc(Cl)c(-c3ccccn3)c2)c(Cl)c1 [vismodegib] + Cc1cc(Nc2cc(N3CCN(C)CC3)nc(/C=C/c3ccccc3)n2)n[nH]1 [ENMD2076] (first compound 1 µM, partner dose 0.04 µM) | 114% | 34.1% | 153% | 25.5% | 102% | 48.1% |
| NC(=O)c1ccc(N(C(N)=O)c2c(F)cccc2F)nc1-c1ccc(F)cc1F + C=CCNC1=C2C[C@@H](C)C[C@H](OC)[C@H](O)[C@@H](C)/C=C(\C)[C@H](OC(N)=O)[C@@H](OC)/C=C\C=C(/C)C(=O)NC(=CC1=O)C2=O [Tanespimycin] (first compound 0.4 µM, partner dose 0.002 µM) | 154% | 78.5% | 107% | 43.1% | 154% | 46.7% |
| COc1ccc(C2=N[C@@H](c3ccc(Cl)cc3)[C@@H](c3ccc(Cl)cc3)N2C(=O)N2CCNC(=O)C2)c(OC(C)C)c1 [Nutlin-3] + CCCCCCCCCCCC1=C(O)C(=O)C=C(O)C1=O [Embelin] (first compound 0.1 µM, partner dose 1.2 µM) | 140% | 71.6% | 81.8% | 68.6% | 75% | 111% |
| C[C@]1(O)C[C@@H](c2nc(-c3ccc4ccc(-c5ccccc5)nc4c3)c3c(N)nccn32)C1 + CN1CCN(c2ccc3nc(-c4c(N)c5c(F)cccc5[nH]c4=O)[nH]c3c2)CC1 [Dovitinib] (first compound 0.4 µM, partner dose 0.1 µM) | 178% | 133% | 109% | 89.6% | 101% | 204% |
| CCN(CC)CCNC(=O)c1c(C)[nH]c(/C=C2\C(=O)Nc3ccc(F)cc32)c1C [sunitinib] + COc1ccc(Cl)c(Nc2nc3ccccc3nc2NS(=O)(=O)c2cccc(NC(=O)C(C)(C)N)c2)c1 [XL147] (first compound 0.4 µM, partner dose 0.8 µM) | 32.9% | 37.6% | 126% | 198% | 87.8% | 183% |

From the supplement of paper PMC4604168 (melanoma cell lines)
